Measured values taken from patent publication EP2386565A2 (Cambridge Enterprise Ltd., priority 1999, dated 2000).

Test: peptide made by a vendor (peptide synthesis; Rink amide resin)
Conditions: whole synthesis, HPLC, triacetate salt

CRD-Leu4Ile11Cys13 peptide 3(3-12)[MCP-I]
final purity (method not given): >97%
